In PMC9726878:
These are yes or no findings as the source states them, for the method shown. In cells and extracts the contact can be indirect. Some entries that bind do so weakly or less than the wild type. Where a sequence is shown, tags or fusion partners need not be part of it.

Target: Myc-HIF1α, Q16665
Assay: co-IP; Flag-RBCK1 and Myc-HIF1α (full length or deletion mutants) co-transfected in HEK293T; lysate incubated with the required antibody or control IgG and protein A/G agarose at 4 °C overnight; blots with anti-Myc and anti-Flag; for the deletion mutants MG132 for 6 h before lysis
Conditions: remark: other sources report otherwise

B1: Flag-RBCK1, Q9BYM8-1 1-510 (protein)
chain: MDEKTKKAEEMALSLTRAVAGGDEQVAMKCAIWLAEQRVPLSVQLKPEVSPTQDIRLWVSVEDAQMHTVTIWLTVRPDMTVASLKDMVFLDYGFPPVLQQWVIGQRLARDQETLHSHGVRQNGDSAYLYLLSARNTSLNPQELQRERQLRMLEDLGFKDLTLQPRGPLEPGPPKPGVPQEPGRGQPDAVPEPPPVGWQCPGCTFINKPTRPGCEMCCRARPEAYQVPASYQPDEEERARLAGEEEALRQYQQRKQQQQEGNYLQHVQLDQRSLVLNTEPAECPVCYSVLAPGEAVVLRECLHTFCRECLQGTIRNSQEAEVSCPFIDNTYSCSGKLLEREIKALLTPEDYQRFLDLGISIAENRSAFSYHCKTPDCKGWCFFEDDVNEFTCPVCFHVNCLLCKAIHEQMNCKEYQEDLALRAQNDVAARQTTEMLKVMLQQGEAMRCPQCQIVVQKKDGCDWIRCTVCHTEICWVTKGPRWGPGGPGDTSGGCRCRVNGIPCHPSCQNCH
With B1 the binding was “binds”.
